Measured values from the supplement of paper PMC4604168 (melanoma cell lines).
Some of the results follow. Many values rest on one well or one pass, so single values are uncertain.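 The apoptosis fraction was the count of cleaved-PARP antibody-stained nuclei relative to all DNA-stained nuclei, imaged in 1,536-well plates. Screening doses were set so most cells survived, and baseline and induced cleaved-PARP levels vary greatly across cell lines.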

What was measured:
Test in all cases: cleaved PARP positive nuclei fraction relative to DMSO control; melanoma cells; higher = more apoptosis
Settings in all cases: library dose: low library concentration; 72 h
MZ2-MEL = test system: MZ2-MEL
MeWo = test system: MeWo
RPMI7951 = test system: RPMI7951
RVH-421 = test system: RVH-421
SkMel28 = test system: SkMel28
SkMel2 = test system: SkMel2
SkMel30 = test system: SkMel30
UACC62 = test system: UACC62
WM115 = test system: WM115
WM1716 = test system: WM1716
WM1745 = test system: WM1745
WM3526 = test system: WM3526
WM3619 = test system: WM3619
WM451Lu = test system: WM451Lu

Row | SMILES | cleaved PARP positive nuclei fraction (MZ2-MEL) | cleaved PARP positive nuclei fraction (MeWo) | cleaved PARP positive nuclei fraction (RPMI7951) | cleaved PARP positive nuclei fraction (RVH-421) | cleaved PARP positive nuclei fraction (SkMel28) | cleaved PARP positive nuclei fraction (SkMel2) | cleaved PARP positive nuclei fraction (SkMel30) | cleaved PARP positive nuclei fraction (UACC62) | cleaved PARP positive nuclei fraction (WM115) | cleaved PARP positive nuclei fraction (WM1716) | cleaved PARP positive nuclei fraction (WM1745) | cleaved PARP positive nuclei fraction (WM3526) | cleaved PARP positive nuclei fraction (WM3619) | cleaved PARP positive nuclei fraction (WM451Lu)
1 | CC1(C)CCC(c2ccc(Cl)cc2)=C(CN2CCN(c3ccc(C(=O)NS(=O)(=O)c4ccc(N[C@H](CCN5CCOCC5)CSc5ccccc5)c(S(=O)(=O)C(F)(F)F)c4)cc3)CC2)C1 + CCCCCCCCc1ccc(CCC(N)(CO)CO)cc1 [fingolimod] (first compound 0.4 µM, partner dose 2 µM) | 243% | 681% | 196% | 674% | 84.2% | 101% | 97.5% | 129% | 203% | 167% | 315% | 170% | 112% | 190%
2 | Cn1sc(=O)n(Cc2ccccc2)c1=O + Nc1cccc2c1CN(C1CCC(=O)NC1=O)C2=O [lenalidomide] (first compound 0.4 µM, partner dose 1 µM) | 167% | 18.2% | 103% | 128% | 69.2% | 127% | 23.5% | 117% | 68.2% | 45.6% | 87.5% | 44.9% | 81.7% | 38.7%
3 | NC(=O)c1ccc(N(C(N)=O)c2c(F)cccc2F)nc1-c1ccc(F)cc1F + COc1ccc(Cl)c(Nc2nc3ccccc3nc2NS(=O)(=O)c2cccc(NC(=O)C(C)(C)N)c2)c1 [XL147] (first compound 0.4 µM, partner dose 0.8 µM) | 89% | 186% | 68.5% | 273% | 82.6% | 229% | 22% | 158% | 86.3% | 62.4% | 96.7% | 304% | 94.4% | 195%
4 | CN(c1ncccc1CNc1nc(Nc2ccc3c(c2)CC(=O)N3)ncc1C(F)(F)F)S(C)(=O)=O + O=C(O)c1ccc2c(c1)nc(Nc1cccc(Cl)c1)c1ccncc12 [CX4945] (first compound 0.08 µM, partner dose 0.4 µM) | 210% | 65.6% | 211% | 59.7% | 61.1% | 240% | 65.1% | 20.8% | 101% | 80.2% | 98.6% | 36.6% | 93.9% | 110%
5 | CS(=O)(=O)c1ccc(C(=O)Nc2ccc(Cl)c(-c3ccccn3)c2)c(Cl)c1 [vismodegib] + O=C(O)[C@@H]1[O][Sb](=[O])([O][Sb]2(=[O])[O][C@H]([C@H](O)CO)[C@H](O)[C@H](C(=O)O)[O]2)[O][C@H]([C@H](O)CO)[C@@H]1O [stibogluconate] (first compound 1 µM, partner dose 2 µM) | 69.9% | 41.9% | 61.3% | 92.9% | 48.5% | 133% | 36.4% | 117% | 43.7% | 97.1% | 103% | 23.2% | 97.3% | 40.7%
6 | C[C@@H](N)c1ccc(C(=O)Nc2ccnc3[nH]ccc23)cc1 + O=C(O)c1ccc2c(c1)nc(Nc1cccc(Cl)c1)c1ccncc12 [CX4945] (first compound 0.4 µM, partner dose 0.4 µM) | 278% | 194% | 291% | 128% | 108% | 125% | 56% | 118% | 139% | 99.8% | 109% | 45.6% | 116% | 30.7%
7 | CCCCCCCCc1ccc(CCC(N)(CO)CO)cc1 [fingolimod] + OCc1c[nH]c2ccccc12 [Indole-3-carbinol] (first compound 2 µM, partner dose 0.8 µM) | 104% | 86.7% | 54.2% | 51.2% | 73.9% | 71.4% | 88.2% | 61.2% | 112% | 86% | 151% | 105% | 186% | 183%
8 | CC(=O)O[C@@]12CO[C@@H]1C[C@H](O)[C@@]1(C)C(=O)[C@H](O)C3=C(C)[C@@H](OC(=O)[C@H](O)[C@@H](NC(=O)OC(C)(C)C)c4ccccc4)C[C@@](O)([C@@H](OC(=O)c4ccccc4)[C@H]21)C3(C)C [Docetaxel] + Nc1nc(F)nc2c1ncn2[C@@H]1O[C@H](CO)[C@@H](O)[C@@H]1O [fludarabine] (first compound 0.0001 µM, partner dose 0.2 µM) | 494% | 2050% | 461% | 92.1% | 432% | 759% | 809% | 960% | 455% | 217% | 219% | 336% | 155% | 105%
9 | COc1ccc(C2=N[C@@H](c3ccc(Cl)cc3)[C@@H](c3ccc(Cl)cc3)N2C(=O)N2CCNC(=O)C2)c(OC(C)C)c1 [Nutlin-3] + Clc1ccc(Nc2nnc(Cc3ccncc3)c3ccccc23)cc1 [vatalanib] (first compound 0.1 µM, partner dose 2 µM) | 147% | 142% | 200% | 78.9% | 103% | 56.6% | 460% | 96.4% | 59.7% | 95.1% | 113% | 165% | 231% | 169%
10 | C[C@@H](N)c1ccc(C(=O)Nc2ccnc3[nH]ccc23)cc1 + C#Cc1cccc(Nc2ncnc3cc(OCCOC)c(OCCOC)cc23)c1 [erlotinib] (first compound 0.4 µM, partner dose 0.8 µM) | 121% | 206% | 324% | 72.3% | 103% | 127% | 124% | 138% | 79.3% | 96.5% | 233% | 40.9% | 85.2% | 50.6%
11 | CCCCCCCCc1ccc(CCC(N)(CO)CO)cc1 [fingolimod] + C[C@@H](Oc1cc(-c2cnn(C3CCNCC3)c2)cnc1N)c1c(Cl)ccc(F)c1Cl [Crizotinib] (first compound 2 µM, partner dose 0.2 µM) | 34.5% | 124% | 70.2% | 192% | 71.9% | 158% | 14.7% | 54.6% | 35.8% | 84.7% | 123% | 83.4% | 99.7% | 51.4%
12 | Cn1cnc2c(F)c(Nc3ccc(Br)cc3Cl)c(C(=O)NOCCO)cc21 [selumetinib] + Nc1cccc2c1CN(C1CCC(=O)NC1=O)C2=O [lenalidomide] (first compound 0.015 µM, partner dose 1 µM) | 290% | 108% | 120% | 121% | 161% | 109% | 240% | 131% | 128% | 30.5% | 90.7% | 146% | 126% | 177%
13 | NC1(c2ccc(-c3nc4ccn5c(=O)[nH]nc5c4cc3-c3ccccc3)cc2)CCC1 + CS(=O)(=O)CCNCc1ccc(-c2ccc3ncnc(Nc4ccc(OCc5cccc(F)c5)c(Cl)c4)c3c2)o1 [lapatinib] (first compound 0.4 µM, partner dose 0.8 µM) | 178% | 115% | 138% | 47.8% | 170% | 46.5% | 125% | 202% | 223% | 84.3% | 117% | 149% | 103% | 99.7%
14 | CC1(C)CCC(c2ccc(Cl)cc2)=C(CN2CCN(c3ccc(C(=O)NS(=O)(=O)c4ccc(N[C@H](CCN5CCOCC5)CSc5ccccc5)c(S(=O)(=O)C(F)(F)F)c4)cc3)CC2)C1 + Clc1ccc(Nc2nnc(Cc3ccncc3)c3ccccc23)cc1 [vatalanib] (first compound 0.4 µM, partner dose 2 µM) | 188% | 731% | 399% | 285% | 212% | 89.8% | 390% | 93.1% | 236% | 194% | 1170% | 109% | 119% | 407%
15 | NC(=O)c1ccc(N(C(N)=O)c2c(F)cccc2F)nc1-c1ccc(F)cc1F + Cn1c(=O)n(-c2ccc(C(C)(C)C#N)cc2)c2c3cc(-c4cnc5ccccc5c4)ccc3ncc21 [NVP-BEZ235] (first compound 0.4 µM, partner dose 0.004 µM) | 102% | 25.4% | 48.6% | 112% | 186% | 20.2% | 102% | 119% | 42.1% | 116% | 91.4% | 90.6% | 101% | 155%
16 | CCN(CC)CCNC(=O)c1c(C)[nH]c(/C=C2\C(=O)Nc3ccc(F)cc32)c1C [sunitinib] + COCC[n+]1c2c(n(Cc3cnccn3)c1C)C(=O)c1ccccc1C2=O [YM155] (first compound 0.4 µM, partner dose 0.0004 µM) | 33.7% | 83.1% | 202% | 233% | 212% | 55.2% | 85.1% | 120% | 158% | 117% | 97% | 111% | 88% | 159%
17 | Cn1cnc2c(F)c(Nc3ccc(Br)cc3Cl)c(C(=O)NOCCO)cc21 [selumetinib] + COc1ccc(Cl)c(Nc2nc3ccccc3nc2NS(=O)(=O)c2cccc(NC(=O)C(C)(C)N)c2)c1 [XL147] (first compound 0.015 µM, partner dose 0.8 µM) | 158% | 95.1% | 27.2% | 63.1% | 358% | 78.1% | 60.5% | 367% | 66% | 67.9% | 108% | 49.6% | 121% | 30.7%
18 | C[C@]1(O)C[C@@H](c2nc(-c3ccc4ccc(-c5ccccc5)nc4c3)c3c(N)nccn32)C1 + Cn1c(Nc2ccc(C(F)(F)F)cc2)nc2cc(Oc3ccnc(-c4ncc(C(F)(F)F)[nH]4)c3)ccc21 [CHIR265] (first compound 0.4 µM, partner dose 0.08 µM) | 59.6% | 232% | 185% | 189% | 128% | 337% | 155% | 300% | 349% | 51.3% | 166% | 69.9% | 128% | 28.9%

Reprinted, nos. 14 to 16
Row | SMILES | cleaved PARP positive nuclei fraction (MZ2-MEL) | cleaved PARP positive nuclei fraction (MeWo) | cleaved PARP positive nuclei fraction (RPMI7951) | cleaved PARP positive nuclei fraction (RVH-421) | cleaved PARP positive nuclei fraction (SkMel28) | cleaved PARP positive nuclei fraction (SkMel2) | cleaved PARP positive nuclei fraction (SkMel30) | cleaved PARP positive nuclei fraction (UACC62) | cleaved PARP positive nuclei fraction (WM115) | cleaved PARP positive nuclei fraction (WM1716) | cleaved PARP positive nuclei fraction (WM1745) | cleaved PARP positive nuclei fraction (WM3526) | cleaved PARP positive nuclei fraction (WM3619) | cleaved PARP positive nuclei fraction (WM451Lu)
14 | CC1(C)CCC(c2ccc(Cl)cc2)=C(CN2CCN(c3ccc(C(=O)NS(=O)(=O)c4ccc(N[C@H](CCN5CCOCC5)CSc5ccccc5)c(S(=O)(=O)C(F)(F)F)c4)cc3)CC2)C1 + Clc1ccc(Nc2nnc(Cc3ccncc3)c3ccccc23)cc1 [vatalanib] (first compound 0.4 µM, partner dose 2 µM) | 188% | 731% | 399% | 285% | 212% | 89.8% | 390% | 93.1% | 236% | 194% | 1170% | 109% | 119% | 407%
15 | NC(=O)c1ccc(N(C(N)=O)c2c(F)cccc2F)nc1-c1ccc(F)cc1F + Cn1c(=O)n(-c2ccc(C(C)(C)C#N)cc2)c2c3cc(-c4cnc5ccccc5c4)ccc3ncc21 [NVP-BEZ235] (first compound 0.4 µM, partner dose 0.004 µM) | 102% | 25.4% | 48.6% | 112% | 186% | 20.2% | 102% | 119% | 42.1% | 116% | 91.4% | 90.6% | 101% | 155%
16 | CCN(CC)CCNC(=O)c1c(C)[nH]c(/C=C2\C(=O)Nc3ccc(F)cc32)c1C [sunitinib] + COCC[n+]1c2c(n(Cc3cnccn3)c1C)C(=O)c1ccccc1C2=O [YM155] (first compound 0.4 µM, partner dose 0.0004 µM) | 33.7% | 83.1% | 202% | 233% | 212% | 55.2% | 85.1% | 120% | 158% | 117% | 97% | 111% | 88% | 159%
